Experiment: peptide made by a vendor (peptide synthesis; RinkAmide ChemMatrix resin; TBTU/HOBt/DIEA)
Details: whole synthesis, RP-HPLC

Q: For AcACAAALRQWLAAACA, which “final HPLC purity” value is on record?
A: >95%

Q: Which “final HPLC purity” value does the source give for AcACAIEGPTLRQWLAARAACA here?
A: >95%
